Measured values reported in PubChem BioAssay AID493014 (National Center for Advancing Translational Sciences (NCATS), 2011).
Out of some 340,000 compounds screened, about 170 (0.05%) were called active. The inconclusive results got no clear call from the source; some entries with a clear call stand among them for comparison. Calls follow the shape of the dose curve; as a rule, active = well fitted inhibition curve with a large enough effect in the signal ratio, with a control signal flat (not every such curve was filed as active); inconclusive = small, poorly fitted or top-dose-only effect, or effect the other way, or a change in a side signal; inactive = flat fitted curve, though single readings scatter; the % refers to the signal ratio. Potencies beside an inconclusive call are fits to weak or partial responses and may not hold up.

Experiment: qHTS Assay to Find Inhibitors of Chronic Active B-Cell Receptor Signaling;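 as to activity change, negative = inhibition: plate controls were basal doxycycline-induced cells for no effect and cells given 10 µM MG132 for full effect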
Conditions: ABC-DLBCL IkBa-CBG/CBR reporter, luminescence ratio (green luciferase fused to IkBa over red control in TMD8 lymphoma cells), 4 h; activity change, negative = inhibition: at 46.1 µM (top of the series) unless noted
Outline: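 TMD8 human ABC-DLBCL cells with doxycycline-inducible IκBα–green luciferase fusion and unfused red luciferase, in 0.5% FBS medium; compounds up to 46 uM, 4 h at 37C. Green/red luminescence ratio, filter-overlap corrected, fitted to concentration-response curves.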
Potency is read from the fitted curve at half-maximal effect.

| SMILES | Potency | activity change, negative = inhibition |
| --- | --- | --- |
| CC(=O)Nc1ccc(S(=O)(=O)N2CCN(c3ccccc3)CC2)cc1 | inconclusive: 1.78 µM [rising, partial curve, poor fit] |  |
| COc1ccc(N(C(=O)Cn2nnc3ccccc32)C(C(=O)NCc2ccco2)c2ccc(C)o2)cc1 (centres undefined) |  | inconclusive: -19.1% |
| O=C(Nn1cc(C(=O)Nc2ccccc2F)c2ccccc2c1=O)c1cnccn1 |  | inactive |
| CSc1ccc(S(=O)(=O)Nc2ccc(OCC(=O)N3CCOCC3)cc2)cc1 |  | inconclusive: -14.4% |
| CCOc1ccc(S(=O)(=O)n2cnc3cc(C)c(C)cc32)cc1 |  | inactive |
| C/C(=N\NC(=O)c1cc2c(s1)CCC(C)C2)c1ccncc1 (centres undefined) |  | inconclusive: -2.18% |
| COc1ccc(S(=O)(=O)N2CCN(C(=O)COc3ccc4c(C)cc(=O)oc4c3)CC2)cc1 |  | inconclusive: 0.255% |
| Cc1cc(C(=O)N2CCOCC2)ccc1[N+](=O)[O-] |  | inconclusive: -12.6% |
| Cc1ccc(Nc2nc3ccc(Cl)cc3n3cnnc23)cc1F |  | inconclusive: 10.6% |
| CCOc1ccc(CCNC(=O)c2[nH]c(C)c(C(C)=O)c2CC)cc1OCC |  | inconclusive: 15.1% |
| CCOC(=O)c1sc2nc(NC(=O)C3CC3)sc2c1C |  | inactive |
| CCOC(=O)[C@H]1[C@H]2COc3ccc(Br)cc3[C@@H]2N2C(=O)c3cc(F)c(F)cc3NC(=O)[C@@]12C |  | inconclusive: 4.12% |
| C=CCOc1cccc(CNc2cccc(C(=O)O)c2)c1 | inconclusive: 31.6 µM [rising, single point] |  |
| CCN(C(=O)CCN1C(=O)S/C(=C\c2ccccc2)C1=O)C1CCS(=O)(=O)C1 (centres undefined) | inconclusive: 35.5 µM [falling, single point] |  |
| COc1ccc(-c2cc(C(=O)Nc3sc4c(c3C#N)CCCC4)c3ccccc3n2)cc1 |  | inactive |
| O=S(=O)(Nc1cccc2cccnc12)c1ccc(S(=O)(=O)N2CCCC2)cc1 | inconclusive: 10.3 µM [falling, partial curve] |  |
| COC(=O)c1ccc(CO/N=C/c2ccc(OC)cc2OC)cc1 | inconclusive: 35.5 µM [falling, single point] |  |
| CCOC(=O)c1c(NC(=O)COC)sc(C(C)=O)c1C |  | inconclusive: -1.44% |
| O=C(c1ccccc1)N1CCN(c2ncnc3c2cnn3-c2ccccc2)CC1 |  | inactive |
| CN(C)c1ccnc(Nc2ccccc2)c1C#N |  | inconclusive: 24% |
| O=C(NCC1OCCc2ccccc21)c1ccco1 (centres undefined) | inconclusive: 2.31 µM [rising, partial curve, poor fit] |  |
| Cc1nn(C)cc1-c1csc(N)n1 |  | inconclusive: -1.59% |
| CN1c2ccccc2C(O)=C(C(=S)Nc2ccc(Cl)cc2)S1(=O)=O | inconclusive: 29.1 µM [falling, single point] |  |
| CCCCC[C@@H]1C=C(C(=O)O)[C@H](c2ccc(Cl)c(Cl)c2)N1S(=O)(=O)c1ccc(C)cc1 | inconclusive: 20.6 µM [falling, single point] |  |
| CCOc1ccc(CCNC(=O)c2cccc3c2C(=O)N(CCOC)C3)cc1OCC |  | inactive |

| SMILES | Potency | activity change, negative = inhibition |
| --- | --- | --- |
| COc1cccc(C(=O)Nc2ccc(-n3nncc3-c3ccccc3)cc2)c1 | inconclusive: 35.5 µM [falling, single point] |  |
| COc1ccc(/C=C2\Oc3cc(OCC(=O)N4CCC(C(=O)O)CC4)ccc3C2=O)c(OC)c1 | inconclusive: 22.4 µM [falling, partial curve, poor fit] |  |
| CC(=O)Nc1ccc(S(=O)(=O)Nc2cccn(Cc3ccc(C)cc3)c2=O)cc1 |  | inactive |
| Cc1ccc(SCC(=O)Nc2cccc(NC(=O)c3ccco3)c2)cc1 | inconclusive: 7.08 µM [falling, partial curve] |  |
| CCCC(=O)N1CCCC(c2nc(-c3cccs3)no2)C1 (centres undefined) | inconclusive: 0.58 µM [falling, full curve, poor fit] |  |
| CC(C)(C)C(=O)NC(=S)Nc1sc2c(c1C#N)CCCCC2 |  | inconclusive: 7.32% |
| O=C1/C(=C/c2cccc3ccccc23)CCCc2ccccc21 | inconclusive: 2.59 µM [rising, full curve, poor fit] |  |
| CCCOC(=O)c1c(NC(=O)CSc2nc(-c3ccco3)cc(C(F)(F)F)n2)sc(C(=O)OC)c1C |  | inconclusive: 18.9% |
| CC(C)(C)NC(=O)Cn1nnc(-c2ccc(OCc3c(F)cccc3Cl)cc2)n1 |  | inactive |
| Cc1nc2sc(-c3ccccc3)cc2c(=O)n1-n1cccc1 |  | inconclusive: -1.48% |
| CCOC(=O)C1CCN(C(=O)CSCc2nc(-c3ccc(OCC)cc3)oc2C)CC1 | inconclusive: 10.3 µM [falling, partial curve] |  |
| CC1CCC2(CC1)NC(=O)N(CC(=O)Nc1cccc(S(=O)(=O)N3CCCCC3)c1)C2=O (centres undefined) |  | inactive |
| COc1ccc(/C=N/Nc2nc3ccccc3s2)cc1O | inconclusive: 31.6 µM [rising, single point] |  |
| COc1ccc(Cl)cc1N1C(=O)CC(N2CCN(S(=O)(=O)c3ccccc3F)CC2)C1=O (centres undefined) |  | inactive |
| CSCCC(NC(=O)COc1ccccc1)C(=O)OC(C)C(=O)Nc1ccccc1C (centres undefined) |  | inactive |
| O=C1c2ccccc2C(=O)N1CCC(c1ccccc1)c1ccco1 (centres undefined) | inconclusive: 4.61 µM [falling, single point] |  |
| Cc1ccc(-c2cc(C#N)c(=O)n(Cc3c(Cl)cccc3Cl)c2)cc1 |  | inactive |
| COc1ccc(NC(=O)c2ccc(CNc3c(N4CCCC4)c(=O)c3=O)cc2)cc1Cl | inconclusive: 15.8 µM [falling, partial curve, poor fit] |  |
| Cc1ccccc1-c1cn(-c2ccccc2)c(=S)[nH]1 |  | inconclusive: -16.7% |
| O=C(Nc1ccc(OC(F)(F)F)cc1)c1cccc(-n2cnnn2)c1 |  | inconclusive: 12.4% |
| CCCc1nnc(SCC(=O)Nc2ccccc2Cl)n1CC1CCCO1 (centres undefined) |  | inactive |
| Cc1ccc(NC(=O)[C@H](NC(=O)[C@@H]2Cc3ccccc3CN2)c2ccccc2)cc1 |  | inconclusive: 2.77% |
| O=C(COC(=O)c1ccc(Cl)nc1)NCc1ccc(F)cc1 |  | inactive |
| O=C(NC1CCCC1)C1CC(=O)N(c2ccc(F)cc2)C1 (centres undefined) |  | inconclusive: -5.85% |

Laid out differently: two of the compounds above.
SMILES	Potency	activity change, negative = inhibition
CC(C)(C)C(=O)NC(=S)Nc1sc2c(c1C#N)CCCCC2		inconclusive: 7.32%
COc1ccc(NC(=O)c2ccc(CNc3c(N4CCCC4)c(=O)c3=O)cc2)cc1Cl	inconclusive: 15.8 µM [falling, partial curve, poor fit]	
